This passage reports cell number change and AC50 results from PubChem BioAssay AID2685 (National Center for Advancing Translational Sciences (NCATS), 2010).

The other results are listed elsewhere or left out. Further columns of the screen follow, without active or inactive calls. Compounds called inactive in the main read-out are mostly missing here. Potencies come from curve fits of mixed quality, noted in brackets.

The AC50 is the concentration at which the activity in the assay is half-maximal. A high value points to activity only at high concentration.

This test in a line: qHTS Assay for Lipid Storage Modulators in Drosophila S3 Cells.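 As to cell number change: cells counted by Cell Tracker Red CMTPX staining in the red channel.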 As to conditions: BODIPY lipid droplet fluorescence, 18-24 h; for cell number change: measured here: cell count max response, cells fed with added oleic acid. The gist of the method: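 Laser-scanning cytometry quantifies lipid droplet accumulation (500–530 nm total intensity; droplet/cell object ratio) in oleic acid-fed (400 uM added) Drosophila S3 cells treated with a concentration series. 20 uM Triacsin C defined 100% inhibition.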
(In general: qHTS replaces the single test concentration by a dilution series.)

Where [1] appears, read: measured here: lipid fluorescence (Fed channel) AC50, cells fed with added oleic acid.
Setting [2] is: measured here: cell number channel AC50, cells fed with added oleic acid.

With `CCC(C(=O)OCn1nnc2ccccc2c1=O)c1ccccc1` (stereo not given), the cell number change was -22%. Also, the AC50 under setting [1] was 29.1 µM [falling, single point].

With `COc1ccc2[nH]cc(CCNC(=O)COc3ccc4ccc(=O)oc4c3)c2c1`, the cell number change was determined as 6.98%. Besides, the AC50 under setting [1] is 0.411 µM [falling, partial curve, poor fit].

On to `[S-]C(=Nc1ccc(Cl)cc1)N[n+]1ccccc1`, for which the cell number change turned out to be 35.2%. The AC50 under setting [2] was 29.1 µM [rising, single point]. Further, the AC50 under setting [1] was 1.3 µM [rising, full curve, poor fit].

For `O=C(O)c1ccccc1COc1ccccc1Cl`, the cell number change was -17.8%.

Turning to `CCCOP(=O)(c1ccc(N(C)C)cc1)C(Nc1ccccc1)c1ccc(C)cc1` (stereo not given), the cell number change is -9.76%. The AC50 under setting [1] was 0.82 µM [rising, full curve, poor fit].

For the compound `O=C(c1cccnc1)N1CCC(Oc2ccc(C(=O)N3CCCCO3)cc2)CC1`, the cell number change worked out at 5.73%. Besides, under setting [1], the AC50 is 0.291 µM [falling, single point].

In the case of `CC(C)CN1CCC(=O)N([C@H](CN=[N+]=[N-])Cc2ccccc2)CC1`, the cell number change is 25.2%. Besides, the AC50 under setting [2] is 0.0651 µM [rising, full curve, poor fit]. Also, the AC50 under setting [1] was 29.1 µM [rising, single point].

Consider `O=C1C(NS(=O)(=O)c2ccc(Br)cc2)=C(N2CCCCC2)C(=O)c2ccccc21`, for which the cell number change is -2.67%. Further, under setting [2], the AC50 was 3.66 µM [falling, single point]. Besides, the AC50 under setting [1] is 6.51 µM [falling, single point].

In the case of `O=C(CSc1nc2ccccc2[nH]1)N/N=C/C=C\c1ccccc1[N+](=O)[O-]`, the cell number change turned out to be 11.9%. Also, under setting [1], the AC50 was 7.31 µM [rising, partial curve].

For the compound `N=C1C(c2ccccc2)=C(O)CN1c1cccc(S(=O)(=O)N2CCCCC2)c1`, the cell number change was -11.7%.

On to `CCOC(=O)c1csc(Nc2nc3ccc(F)cc3s2)n1`, for which the cell number change is -13.7%. For the same compound, the AC50 under setting [1] is 32.6 µM [falling, single point].

As to `COCCn1c(C)cc(C(=O)CSc2nc3ccccc3c(=O)n2Cc2ccco2)c1C`, the cell number change is 14%. In addition, the AC50 under setting [1] is 18.4 µM [rising, single point].

As for `CC1(C)C2CC=C(/C=N/NC(=O)c3ccc(Cl)cc3)C1C2` (stereo not given), the cell number change is -21.7%. The AC50 under setting [1] was 6.51 µM [falling, partial curve, poor fit].

As for `CCOc1cc(/C=N/O)ccc1OS(=O)(=O)c1ccc(C)cc1`, the cell number change is -6.14%. Moreover, the AC50 under setting [2] was 6.51 µM [rising, single point].

For `Cc1ccc(S(=O)(=O)NCC(=O)OCC(=O)c2cc(C)n(-c3ccccc3)c2C)cc1`, the cell number change was -21.9%. Under setting [1], the AC50 was 3.66 µM [falling, full curve].

For the compound `O=C(O)c1cc(N2C(=O)C3CC=CCC3C2=O)ccc1NCc1cccnc1` (stereo not given), the cell number change was -1.75%. Besides, the AC50 under setting [1] is 0.0058 µM [falling, full curve, poor fit].

For `O=C(Cn1ccc(NC(=O)OCc2ccccc2)nc1=O)NCc1ccc2[nH]ccc2c1`, the cell number change was -15.3%. For the same compound, under setting [2], the AC50 is 0.291 µM [falling, partial curve, poor fit]. Further, under setting [1], the AC50 is 0.259 µM [falling, full curve, poor fit].

In the case of `CCCCCNC(=O)C(C)Sc1ccc(Cl)cc1` (stereo not given), the AC50 under setting [1] is 2.91 µM [falling, single point].

With `CC(C)CN1C(=O)C(=O)N(CC(=O)N2c3ccccc3NC(=O)CC2C)C1=O` (stereo not given), the cell number change was -15.9%. Under setting [1], the concentration at half-maximal activity (AC50) is 7.31 µM [rising, partial curve, poor fit].

Regarding `COc1ccc2[nH]c3c(c2c1)CCN1C(=O)N([C@@H](C)C(=O)NCc2ccco2)C(=O)[C@]31C`, the cell number change is -15.9%. In addition, the AC50 under setting [1] is 18.4 µM [falling, single point].

`CCn1c(CSc2ncn[nH]2)nc2cc(C(=O)O)ccc21`: the cell number change was 28.9%.

As for `COc1cc(/C=C(\C#N)C(=O)NC2CCCCC2C)ccc1OS(=O)(=O)c1ccc(C)cc1` (stereo not given), the cell number change was -47.9%. For the same compound, the AC50 under setting [2] is 8.2 µM [falling, partial curve]. Besides, the AC50 under setting [1] was 5.17 µM [falling, partial curve].

Take `CCOc1ccccc1NC(=O)C1CCCN(S(=O)(=O)c2cccc3cccnc23)C1` (stereo not given): the cell number change was found to be 7.49%. In addition, the AC50 under setting [1] was 6.51 µM [rising, single point].

Regarding `CSCCC(NC(=O)COc1ccccc1)C(=O)O` (stereo not given), the cell number change came out at 10.6%.

Regarding `COc1cc([N+](=O)[O-])cc(/C=N/NC(=O)c2cc(-c3ccccc3)nc3ccccc23)c1O`, the cell number change was -4.44%. For the same compound, the AC50 under setting [1] is 1.46 µM [falling, partial curve].

For the compound `COc1ccccc1OCc1ccc(C(=O)Nc2ccccc2F)cc1`, the cell number change was -24.4%. For the same compound, under setting [1], the AC50 is 23.1 µM [falling, single point].

For `Cn1ncc2c(=O)[nH]cnc21`, the cell number change is -35.3%.

For the compound `Cn1c2ccccc2c2cnn(CC(=O)N3CCCCC3)c(=O)c21`, the cell number change was 47.4%. For the same compound, the AC50 under setting [2] is 0.517 µM [rising, full curve]. Also, the AC50 under setting [1] is 23.1 µM [rising, single point].

Regarding `NC(=O)CCCC1=NS(=O)(=O)c2ccccc2N1`, the cell number change was -19.5%. The AC50 under setting [2] is 6.51 µM [falling, single point].

As to `CCn1c(CSc2nc3ccccc3s2)nnc1SCC(=O)c1ccc2c(c1)OCCO2`, the cell number change was -14.3%. Further, the AC50 under setting [1] is 6.51 µM [rising, single point].

On to `Cc1cnc(C(=O)OC(C)C(=O)Nc2ccccc2-c2ccccc2)cn1` (stereo not given), for which the cell number change was found to be 33.1%. Further, the AC50 under setting [2] is 29.1 µM [rising, single point].

Consider `COc1ccc(C(=O)COC(=O)CN2C(=O)C3C4C=CC(C5CC45)C3C2=O)cc1` (stereo not given), for which the cell number change was 16.7%. Further, the AC50 under setting [2] is 2.06 µM [rising, single point]. Also, under setting [1], the AC50 is 23.1 µM [rising, single point].

For `C=CCn1c(SCc2cc(=O)n3cc(C)ccc3n2)nnc1-c1cccc(C)c1`, the cell number change was -30.3%. Besides, the AC50 under setting [2] is 18.4 µM [falling, single point]. Also, the AC50 under setting [1] was 7.31 µM [falling, partial curve].

With `CC(C)(C)C1CCc2c(C(=O)NNC(=O)CCCC(=O)O)csc2C1` (stereo not given), the cell number change worked out at 7.83%. Further, under setting [2], the AC50 was 0.58 µM [falling, single point]. For the same compound, the AC50 under setting [1] is 0.731 µM [falling, single point].

For `Nc1ccc(OCCCc2c(N)nc(N)nc2N)cc1`, the cell number change was -34.5%. In addition, the AC50 under setting [2] is 2.91 µM [falling, partial curve, poor fit]. The AC50 under setting [1] is 1.84 µM [falling, partial curve].

In the case of `CC(=O)Nc1ccc(S(=O)(=O)N2CCC(c3nc4c(nnn4Cc4ccccc4Cl)c(=O)[nH]3)CC2)cc1`, the cell number change is -6.25%. For the same compound, the AC50 under setting [1] was 25.9 µM [rising, single point].

As for `CC(NC(=O)COc1ccc(S(=O)(=O)N2CCOCC2)cc1)c1ccccc1` (stereo not given), the cell number change was 22.5%. Moreover, the AC50 under setting [2] was 0.461 µM [falling, single point]. In addition, the AC50 under setting [1] is 20.6 µM [rising, partial curve, poor fit].

For the compound `Cc1ccccc1NC(=O)CCCNC(=O)c1ccc(Cl)cc1`, under setting [1], the AC50 is 29.1 µM [rising, partial curve].

With `COc1ccc(CN(Cc2cc3cc(C)ccc3[nH]c2=O)C(=O)N(C)C)cc1`, the cell number change was -0.644%. Further, the AC50 under setting [1] is 1.84 µM [rising, full curve].

As to `Cc1nc2ccccc2c(=O)n1Cc1ccc([N+](=O)[O-])cc1`, the cell number change was -7.87%. Also, the AC50 under setting [2] is 0.0651 µM [rising, full curve, poor fit].

Regarding `COc1cccc(C2CC(c3ccc(C(C)C)cc3)n3nc(N)nc3N2)c1` (stereo not given), the cell number change is 28.4%. In addition, under setting [1], the AC50 is 6.51 µM [rising, single point].

In the case of `COc1ccc(Cl)cc1NC(=O)CN(C)CC(=O)Nc1cc(OC)c(OC)c(OC)c1`, the cell number change is -18.5%. Besides, the AC50 under setting [1] was 5.8 µM [rising, partial curve].

For `O=C1CCC(=O)N1c1nc2nc(-c3ccccc3)cc(-c3ccccc3)n2n1`, the cell number change is 41.1%. Under setting [2], the AC50 is 0.82 µM [rising, partial curve]. Moreover, the AC50 under setting [1] was 0.461 µM [rising, full curve].

As to `CCC(=O)c1ccc(OCC(=O)Nc2ccc(N3CCCCC3)cc2)cc1`, the cell number change is 2.5%.

For the compound `COc1ccc(C(=O)CSc2nnc(-c3ccc(S(=O)(=O)N4CCOCC4)cc3)o2)cc1`, the cell number change is -7.77%. Also, the AC50 under setting [2] was 0.116 µM [falling, full curve, poor fit]. Under setting [1], the AC50 is 0.00517 µM [falling, full curve].

For `CCOC(=O)c1cc(-c2cccc(C(F)(F)F)c2)nc2nc(SC)[nH]c(=O)c12`, the cell number change was determined as 5.14%. Moreover, under setting [2], the AC50 is 0.58 µM [rising, full curve, poor fit]. In addition, the AC50 under setting [1] is 0.058 µM [falling, partial curve, poor fit].

In the case of `CCOC(=O)N1CCN(C(=O)c2ccc(Cn3c(=S)[nH]c4cc(C(=O)OC)ccc4c3=O)cc2)CC1`, the cell number change was determined as 3.77%.

As to `CCc1nc(Nc2ccccc2F)c2oc3ccccc3c2n1`, the cell number change is -34.8%. In addition, the AC50 under setting [2] was 29.1 µM [falling, single point]. Under setting [1], the AC50 is 29.1 µM [falling, single point].

Turning to `CC1(C)NC(=O)N(CCCOc2ccc3c(c2)CCC3)C1=O`, the AC50 under setting [1] was 0.731 µM [falling, full curve].

Regarding `O=C(c1ccsc1)N1CCCC(N2CCN(c3cccc(Cl)c3)CC2)C1` (stereo not given), the cell number change is -5.42%.

On to `CCOC(=O)Cc1nn(CCc2ccccn2)c(=O)c2ccccc12`, for which the cell number change is -8.14%. Moreover, the AC50 under setting [1] was 3.66 µM [rising, partial curve].

`Cc1cccc(C)c1NC(=O)CN(C)C(=O)CN1C(=O)NC(C)(C)C1=O`: the cell number change is 2.59%.

As to `CCC(C(=O)NC1CCCC1)N(C(=O)Cn1nnc(-c2ccc(C)o2)n1)c1ccc(OC)c(OC)c1` (stereo not given), the cell number change was -41%. The AC50 under setting [2] is 0.0731 µM [falling, full curve, poor fit].

Regarding `OC(CNCc1ccco1)Cn1c2ccccc2c2ccccc21` (stereo not given), the cell number change was 16.4%. Under setting [2], the half-maximal activity concentration (AC50) was 0.184 µM [falling, full curve, poor fit]. The AC50 under setting [1] is 29.1 µM [rising, single point].

`CN(C)C(=O)C(CCN1CCC(O)(c2ccc(Cl)cc2)CC1)(c1ccccc1)c1ccccc1`: the cell number change was -53.9%. The half-maximal activity concentration (AC50) under setting [2] was 16.4 µM [falling, single point]. Besides, under setting [1], the AC50 was 1.84 µM [falling, partial curve, poor fit].
